{"source": "paper PMC7819943", "about": "“Rice protein-binding microarrays: a tool to detect cis-acting elements near promoter regions in rice”", "note": "Some of the results follow."}
{"biological_target": "T1, OsSMF1 (Oryza sativa, UniProt Q6ZLB0 1-436)", "T1 sequence": "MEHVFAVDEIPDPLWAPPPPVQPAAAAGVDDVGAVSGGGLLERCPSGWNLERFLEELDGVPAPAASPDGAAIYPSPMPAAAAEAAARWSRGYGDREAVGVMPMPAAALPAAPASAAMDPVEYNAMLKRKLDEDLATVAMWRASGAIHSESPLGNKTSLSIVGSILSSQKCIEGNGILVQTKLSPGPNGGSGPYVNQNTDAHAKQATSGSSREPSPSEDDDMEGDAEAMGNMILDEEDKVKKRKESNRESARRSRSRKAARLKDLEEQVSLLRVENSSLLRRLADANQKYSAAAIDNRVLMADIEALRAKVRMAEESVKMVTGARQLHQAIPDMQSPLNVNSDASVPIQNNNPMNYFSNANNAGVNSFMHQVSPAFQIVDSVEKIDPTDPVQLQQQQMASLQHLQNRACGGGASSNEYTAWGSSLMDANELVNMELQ", "assay": "protein-binding microarray (RPBM); PBS, 2% BSA, 51.3 ng/ul salmon testes DNA, 50 uM zinc acetate, 200 nM TF, 25 C, 1 h; high values mean tight binding", "settings": "protein: recombinant; tags: N-terminal polyhistidine and DsRed monomer fusion (pET32a); chain copies: 2; label: CyDye5-dUTP incorporated in the synthesized complementary strand; 3' TTTTT single-stranded linker to array surface; dsDNA, one strand shown", "method_in_brief": "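Ni–NTA purification followed expression in E. coli BL21-CodonPlus of transcription factors fused N-terminally to a polyhistidine tag and DsRed. At 200 nM in PBS with 2% BSA, salmon testes DNA and 50 µM zinc acetate, the protein was incubated for 1 h at 25 °C with a custom Agilent array that had been primer-extended with Cy5-dUTP and blocked with 2% BSA. After washing, the array was read on an Axon 4000B scanner. The binding signal is per-feature fluorescence intensity in arbitrary units.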"}
{"sequence": "GTTTAATCGTGGTCTTGTCTACGTGGCACGCAACATGGACCGGAGTCACCTAGTGCAG", "binding signal": "25000 fluorescence intensity (a.u.)"}
{"sequence": "CGTGATCAATTCGCCTCATGCTGGCGTGACGCGGACCGAGCGGAGTCACCTAGTGCAG", "binding signal": "6720 fluorescence intensity (a.u.)"}
{"sequence": "CTTTCTTTTCCTTTCCTTCTCTTCTCTTTATCTCAGCGATCGGAGTCACCTAGTGCAG", "binding signal": "15100 fluorescence intensity (a.u.)"}
{"sequence": "TCGCCGCAGTCGGGCACCGCCGCCCCGTCATCGCCGCGGCCGGAGTCACCTAGTGCAG", "binding signal": "7140 fluorescence intensity (a.u.)"}
{"sequence": "TAAGCTAGGAGAGATTGTGCGAATCATCTAGCTCAAAATTCGGAGTCACCTAGTGCAG", "binding signal": "3910 fluorescence intensity (a.u.)"}
{"sequence": "AGCTTGTTTATAGGAGTGAGTGTGCACGTATGTGTAGGCGCGGAGTCACCTAGTGCAG", "binding signal": "4180 fluorescence intensity (a.u.)"}
{"sequence": "CCAACGTTTCAATCGCTTGTTCGATCAGATTAACGGCGTTCGGAGTCACCTAGTGCAG", "binding signal": "38500 fluorescence intensity (a.u.)"}
{"sequence": "GAGAGAATAGTGTCTTCATAATAGATGAAGAATAAATATGCGGAGTCACCTAGTGCAG", "binding signal": "4150 fluorescence intensity (a.u.)"}
{"sequence": "TTGAAAGCGGTTCCTCTGATGTAACATATCGTGACATGGTCGGAGTCACCTAGTGCAG", "binding signal": "4110 fluorescence intensity (a.u.)"}
{"sequence": "GAAGCCACTCCGCGCGCAGCTGGTGCTCAGGAGCGTCGATCGGAGTCACCTAGTGCAG", "binding signal": "6620 fluorescence intensity (a.u.)"}
{"sequence": "TCTATGGTGTCTCTAGAACCATCCTTCTTTCCTCTTGCTCCGGAGTCACCTAGTGCAG", "binding signal": "21200 fluorescence intensity (a.u.)"}
{"sequence": "ACCGAGTAGATCACTTCCGTGCAAGTTGGTTGACAAGTATCGGAGTCACCTAGTGCAG", "binding signal": "3480 fluorescence intensity (a.u.)"}
{"sequence": "ATGCGCCCATGCACTCCACGTAGCTAGCTAAGACGCGCCGCGGAGTCACCTAGTGCAG", "binding signal": "5650 fluorescence intensity (a.u.)"}
{"sequence": "CCTTGGTGTCTCCTGCCGCCCACGCACCCTCTTTCCCGTGCGGAGTCACCTAGTGCAG", "binding signal": "3660 fluorescence intensity (a.u.)"}
{"sequence": "AATAATTTTCTCATTTTCTTTAACAGAAGATGACAATGCACGGAGTCACCTAGTGCAG", "binding signal": "34800 fluorescence intensity (a.u.)"}
{"sequence": "TCCCTTTCTGACGTGTGCTCATCCGACGCGAGGCTCCCGCCGGAGTCACCTAGTGCAG", "binding signal": "12800 fluorescence intensity (a.u.)"}
{"sequence": "TCTCCATCCTGCTAGCAGAGGTGGCGCCGGCGTCCTCCTGCGGAGTCACCTAGTGCAG", "binding signal": "3280 ± 140 fluorescence intensity (a.u.)"}
{"sequence": "GCATTTGCACTTGTAGGCGTGTGTTTTATGACACATTCTACGGAGTCACCTAGTGCAG", "binding signal": "3680 fluorescence intensity (a.u.)"}
{"sequence": "GGAGATGAGGTGGGAGGTGGATTTGGTGTTGTTCAAGACCCGGAGTCACCTAGTGCAG", "binding signal": "4420 fluorescence intensity (a.u.)"}
{"sequence": "AAATACAACGGAAACGTAATGACGCTACGATAATCTATCTCGGAGTCACCTAGTGCAG", "binding signal": "3730 fluorescence intensity (a.u.)"}
{"sequence": "TGTCCAGATTTGTAGTACTAGAATGTGTCATATCCCGTTACGGAGTCACCTAGTGCAG", "binding signal": "7020 fluorescence intensity (a.u.)"}
{"sequence": "TGTGTACAGAAAGTTGTCACCATCCAACACGTGAACTTTCCGGAGTCACCTAGTGCAG", "binding signal": "4030 fluorescence intensity (a.u.)"}
{"sequence": "AGATTTTGAATTCGTAGCTCTAGCCTACGTGACACTCTGACGGAGTCACCTAGTGCAG", "binding signal": "3200 fluorescence intensity (a.u.)"}
